{"source": "paper PMC8815882", "about": "“Screening the pandemic response box identified benzimidazole carbamates, Olorofim and ravuconazole as promising drug candidates for the treatment of eumycetoma” (PLoS Neglected Tropical Diseases, 2022)", "system": "M. mycetomatis MM55", "test": "IC50 determination, 2-fold dilution series 16 to 0.03125 μM", "type": "cell-based", "details": "Madurella mycetomatis", "note": "Read-outs that look alike come from different tables or passages of the source."}
{"smiles": "Clc1ccc(COC(Cn2ccnc2)c2ccc(Cl)cc2Cl)c(Cl)c1", "note": "(stereo not drawn) [MMV002722]", "values": [{"measurement": "IC50", "setting": "MM55, replicate 1, read-out: IC50 1 um", "value": 0.22, "unit": "µM"}, {"measurement": "IC50", "setting": "MM55, replicate 2, read-out: IC50 2 um", "value": 0.22, "unit": "µM"}, {"measurement": "IC50", "setting": "MM55, replicate 3, read-out: IC50 3 um", "value": 0.25, "unit": "µM"}]}
